Reference: article PMC6486637
No constants are given. Whether binding was seen depends on the method and setting. Binding seen in cells or lysates may run through a third protein. Some binding calls cover weakened binding; strength is not graded here.

Chains of the proteins cited; added tags and fusions are not shown.
UniProt O15318: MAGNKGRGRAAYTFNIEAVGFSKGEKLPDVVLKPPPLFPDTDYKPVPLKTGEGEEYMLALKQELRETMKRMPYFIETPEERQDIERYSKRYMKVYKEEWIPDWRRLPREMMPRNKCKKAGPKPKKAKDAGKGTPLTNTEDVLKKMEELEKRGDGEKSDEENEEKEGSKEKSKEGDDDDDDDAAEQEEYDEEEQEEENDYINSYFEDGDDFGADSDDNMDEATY

T1: POLR3A, the largest (catalytic) subunit of RNA polymerase III (human (endogenous in PC-3)) (UniProt O14802)
T1 sequence: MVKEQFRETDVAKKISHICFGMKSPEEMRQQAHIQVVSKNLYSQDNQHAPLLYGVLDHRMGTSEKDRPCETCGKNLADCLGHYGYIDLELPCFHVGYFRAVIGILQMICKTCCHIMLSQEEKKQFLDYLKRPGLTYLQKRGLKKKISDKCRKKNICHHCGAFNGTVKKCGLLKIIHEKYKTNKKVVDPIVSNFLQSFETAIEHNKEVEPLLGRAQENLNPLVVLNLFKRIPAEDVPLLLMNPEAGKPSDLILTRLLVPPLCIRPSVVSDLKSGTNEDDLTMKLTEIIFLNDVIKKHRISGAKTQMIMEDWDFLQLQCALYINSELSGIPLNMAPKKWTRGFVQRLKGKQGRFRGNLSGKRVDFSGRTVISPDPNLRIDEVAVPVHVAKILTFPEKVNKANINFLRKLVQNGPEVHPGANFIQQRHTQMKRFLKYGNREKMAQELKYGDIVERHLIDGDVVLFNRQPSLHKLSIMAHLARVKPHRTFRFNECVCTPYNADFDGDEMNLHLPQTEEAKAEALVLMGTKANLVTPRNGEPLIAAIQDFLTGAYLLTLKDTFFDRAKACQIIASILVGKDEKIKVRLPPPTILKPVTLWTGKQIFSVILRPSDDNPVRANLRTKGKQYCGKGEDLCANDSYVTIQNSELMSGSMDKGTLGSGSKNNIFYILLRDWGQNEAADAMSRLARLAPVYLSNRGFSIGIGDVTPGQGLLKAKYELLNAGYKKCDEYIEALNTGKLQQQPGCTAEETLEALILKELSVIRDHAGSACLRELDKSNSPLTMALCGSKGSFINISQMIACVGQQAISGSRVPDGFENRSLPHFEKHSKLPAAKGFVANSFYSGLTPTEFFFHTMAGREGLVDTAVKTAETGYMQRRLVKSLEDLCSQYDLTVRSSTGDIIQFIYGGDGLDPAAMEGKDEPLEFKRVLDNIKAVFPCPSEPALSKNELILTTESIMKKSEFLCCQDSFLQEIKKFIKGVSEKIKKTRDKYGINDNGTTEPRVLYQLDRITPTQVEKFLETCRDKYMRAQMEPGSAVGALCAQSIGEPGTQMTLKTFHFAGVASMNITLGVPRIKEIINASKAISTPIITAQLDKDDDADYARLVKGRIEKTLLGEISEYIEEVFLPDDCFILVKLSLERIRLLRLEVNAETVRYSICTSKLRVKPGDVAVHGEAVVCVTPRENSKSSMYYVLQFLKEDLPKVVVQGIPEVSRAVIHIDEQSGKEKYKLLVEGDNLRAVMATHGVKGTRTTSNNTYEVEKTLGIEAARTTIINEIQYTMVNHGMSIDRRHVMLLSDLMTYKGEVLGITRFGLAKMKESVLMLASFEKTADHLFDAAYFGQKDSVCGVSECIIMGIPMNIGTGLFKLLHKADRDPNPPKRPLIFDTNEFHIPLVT


Biological target: T1, POLR3A, the largest (catalytic) subunit of RNA polymerase III (human (endogenous in PC-3))
Experiment: co-IP; PC-3 lysates incubated overnight with antiserum 1900 against POLR3A (or preimmune serum) pre-bound to Protein A magnetic beads; washed twice with TBST containing 0.5 M NaCl and once with water; eluted with 50 mM glycine pH 2; western blot for POLR3A, POLR3G, POLR3GL; cells cultured 48 h without or with 20 μM ML-60218 (Figure 2F)

Molecule | binding
POLR3G (RPC7, RPC32α), RNA polymerase III subunit (from UniProt O15318 1-223) | binds
POLR3GL (RPC7L, RPC32β), RNA polymerase III subunit, paralogue of POLR3G (protein, UniProt Q9BT43 1-218) MASRGGGRGRGRGQLTFNVEAVGIGKGDALPPPTLQPSPLFPPLEFRPVPLPSGEEGEYVLALKQELRGAMRQLPYFIRPAVPKRDVERYSDKYQMSGPIDNAIDWNPDWRRLPRELKIRVRKLQKERITILLPKRPPKTTEDKEETIQKLETLEKKEEEVTSEEDEEKEEEEEKEEEEEEEYDEEEHEEETDYIMSYFDNGEDFGGDSDDNMDEAIY | binds
